Source: ChEMBL document CHEMBL3988442, “University of Dundee, Small-Polar-MMV Screening Library” (2021).

By UniProt entry, the sequences of proteins in these tests, tags left out. Residues count along the entry.
UniProt A4I591, 1-473: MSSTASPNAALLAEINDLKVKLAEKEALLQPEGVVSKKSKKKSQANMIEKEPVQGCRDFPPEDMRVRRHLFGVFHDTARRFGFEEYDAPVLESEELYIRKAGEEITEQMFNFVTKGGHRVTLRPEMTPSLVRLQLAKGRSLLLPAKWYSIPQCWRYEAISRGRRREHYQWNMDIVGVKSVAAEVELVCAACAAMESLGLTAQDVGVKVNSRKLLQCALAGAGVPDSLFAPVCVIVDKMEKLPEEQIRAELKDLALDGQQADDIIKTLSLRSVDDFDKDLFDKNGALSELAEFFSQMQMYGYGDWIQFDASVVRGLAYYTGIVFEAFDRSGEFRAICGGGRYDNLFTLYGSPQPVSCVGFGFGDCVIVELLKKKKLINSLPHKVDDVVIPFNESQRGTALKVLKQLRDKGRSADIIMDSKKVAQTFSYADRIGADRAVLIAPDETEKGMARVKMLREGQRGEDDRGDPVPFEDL
UniProt Q4DA54, 1-478: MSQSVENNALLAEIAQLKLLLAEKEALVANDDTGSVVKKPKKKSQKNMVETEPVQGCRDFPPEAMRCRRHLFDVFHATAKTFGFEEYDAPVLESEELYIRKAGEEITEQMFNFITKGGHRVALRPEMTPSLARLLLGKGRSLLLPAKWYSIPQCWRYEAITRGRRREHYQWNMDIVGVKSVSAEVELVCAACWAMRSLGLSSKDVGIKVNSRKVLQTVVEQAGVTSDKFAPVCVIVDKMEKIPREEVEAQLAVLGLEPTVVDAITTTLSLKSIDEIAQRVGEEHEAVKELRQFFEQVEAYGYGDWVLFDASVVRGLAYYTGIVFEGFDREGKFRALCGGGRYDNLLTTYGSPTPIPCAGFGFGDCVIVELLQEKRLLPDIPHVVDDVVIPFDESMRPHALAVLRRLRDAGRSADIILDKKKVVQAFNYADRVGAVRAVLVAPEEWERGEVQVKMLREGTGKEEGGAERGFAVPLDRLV
UniProt P9WPC5, whole entry: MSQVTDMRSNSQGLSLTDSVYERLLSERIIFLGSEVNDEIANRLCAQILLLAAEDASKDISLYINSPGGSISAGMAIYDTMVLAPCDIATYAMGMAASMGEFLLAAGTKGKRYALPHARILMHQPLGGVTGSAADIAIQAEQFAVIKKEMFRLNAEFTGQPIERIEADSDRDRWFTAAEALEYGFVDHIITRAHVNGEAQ
UniProt P9WPC3, whole entry partner: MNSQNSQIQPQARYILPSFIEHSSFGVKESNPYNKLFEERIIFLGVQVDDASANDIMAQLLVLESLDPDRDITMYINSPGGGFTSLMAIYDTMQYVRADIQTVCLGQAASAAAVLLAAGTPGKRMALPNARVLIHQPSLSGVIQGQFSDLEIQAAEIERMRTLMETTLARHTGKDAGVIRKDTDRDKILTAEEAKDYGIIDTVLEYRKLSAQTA

LiHisRS: 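Histidine-tRNA ligase, Leishmania infantum (UniProt A4I591). Enzyme assay of histidyl-tRNA synthetase; the read-out is not stated. Compounds at 30 µM. Higher reads as stronger inhibition (inferred: compounds with an IC50 in retests scored well above the rest). The assay is labelled LdHisRS but filed under L. infantum. About 69,000 compounds were tested under these conditions; 0.6% (about 410) showed 50% or more at least once.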
TcHisRS: 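Histidine-tRNA ligase, Trypanosoma cruzi CL Brener (UniProt Q4DA54). Enzyme assay of histidyl-tRNA synthetase; the read-out is not stated. Compounds at 30 µM. Direction is inferred from retests: higher values go with stronger inhibition. Size under these conditions: about 69,000 compounds, about 31 of them at 50% or above in at least one test.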
ClpP1P2: 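ClpP1P2, Mycobacterium tuberculosis (UniProt P9WPC5 and UniProt P9WPC3). Protease assay of ClpP1P2, read by the AMC dye that it sets free. Concentration: 50 µM. Direction is inferred from only a few compounds that gave an IC50; most scored high, so higher reads as stronger inhibition. Most other retested compounds had strongly negative values. Of about 69,000 compounds tested this way, about 10 (0.015%) reached 50% or more in at least one test.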

Results are given as percent effect.
How 0% and 100% were set is not recorded. Most values in the screen are low, and negative values occur.
The compounds are a random part of those screened.

Result for O=C(NCCNc1ccccn1)Nc1cc(C(F)(F)F)c[nH]c1=O was LiHisRS: 16.51%; TcHisRS: 5.539%; ClpP1P2: -15.68%.
Result for CCc1ccc(CCn2cnc(C#N)n2)cc1 was LiHisRS: 2.073%; TcHisRS: 1.657%; ClpP1P2: 0.7263%.
Result for CCc1cc(NCCN2CCNC2=O)n2nccc2n1 was LiHisRS: 7.229%; TcHisRS: -0.5525%; ClpP1P2: -17.89%.
Result for CCOc1ncccc1CNC(=O)NCC(O)c1ccccc1OC (stereo not shown) was LiHisRS: 6.78%; TcHisRS: 5.714%; ClpP1P2: -5.259%.
Result for O=C(NC[C@@H]1CCCO1)c1ccc(S(=O)(=O)N[C@@H]2CCNC2)cc1 was LiHisRS: 17.02%; TcHisRS: 4.046%; ClpP1P2: 4.131%.
Result for O=C(C1CCCO1)N1CCC2(CC1)COCCN(Cc1ccncc1)C2 (stereo not shown) was LiHisRS: 23%; TcHisRS: 14.29%; ClpP1P2: 6.72%.
Result for CN(Cc1ccncc1)C(CO)c1cccc(F)c1 (stereo not shown) was LiHisRS: -1.205%; TcHisRS: 4.878%; ClpP1P2: 2.791%.
Result for Cc1nccc([C@@H]2C[C@@H]3CCN(S(=O)(=O)N(C)C)C[C@H]3O2)n1 was LiHisRS: -5.556%; TcHisRS: 0%; ClpP1P2: -6.355%.
Result for CC(C)(C)c1n[nH]c(C2CN(C(=O)CCCn3cccn3)CCO2)n1 (stereo not shown) was LiHisRS: 14.16%; TcHisRS: 1.754%; ClpP1P2: -6.359%.
Result for O=C(c1n[nH]cc1Br)N1CCOCC1 was LiHisRS: 20.35%; TcHisRS: 3.982%; ClpP1P2: 0.393%.
Result for Cc1cc2nc(C(C)C)cc(NCCc3ccncc3)n2n1 was LiHisRS: 18.68%; TcHisRS: -6.931%; ClpP1P2: -2.206%.
Result for O=C(c1cnc(-c2cccs2)s1)N1CCCC(n2ccnc2)C1 (stereo not shown) was LiHisRS: 14.04%; TcHisRS: 3.725%; ClpP1P2: -9.018%.
Result for Cc1cc2nc(C(C)C)cc(N3CCC(O)CC3)n2n1 was LiHisRS: 22.83%; TcHisRS: -39.6%; ClpP1P2: -10.4%.
Result for O=C(NCCN1CCc2ccccc2C1)c1scnc1Cl was LiHisRS: 25.76%; TcHisRS: 1.515%; ClpP1P2: 4.738%.
Result for COCC(=O)NCC[C@H]1CC(C)(C)Oc2ccc(OC)cc21 was LiHisRS: 14.29%; TcHisRS: 12.43%; ClpP1P2: -4.699%.
Result for CN(c1nccc(-c2cnc3sc(Cl)cn3c2=O)n1)C1CCCCC1 was LiHisRS: 8.571%; TcHisRS: 11.3%; ClpP1P2: -5.348%.
Result for CCOc1ccc(Cl)c(C(=O)N2CCN(CC(C)(C)O)CC2)n1 was LiHisRS: 6.957%; TcHisRS: 3.448%; ClpP1P2: -1.432%.
Result for Cc1ccc(C(=O)N2CCCN(Cc3cscn3)CC2)o1 was LiHisRS: 22.12%; TcHisRS: 8.455%; ClpP1P2: -36.57%.
Result for CN1CC(C(=O)NC2(c3cccc(F)c3)CCOCC2)CC1=O (stereo not shown) was LiHisRS: 27.5%; TcHisRS: 1.242%; ClpP1P2: -15.52%.
Result for O=C(NCCNc1ccc(C(F)(F)F)cn1)c1ccoc1 was LiHisRS: 14.71%; TcHisRS: 2.646%; ClpP1P2: 10.42%.
Result for CN(C)c1ccc(C(O)CNC(=O)NCCCc2ccccc2)cc1 (stereo not shown) was LiHisRS: -51.22%; TcHisRS: 10.1%; ClpP1P2: -8.366%.
Result for COc1ccccc1OCc1cc(C(=O)NC[C@@H]2CCCN2)n[nH]1 was LiHisRS: 9.091%; TcHisRS: 2.116%; ClpP1P2: -5.493%.
Result for Cc1cccc(C2(O)CCN(C(=O)c3ccc(N(C)C)cc3)CC2)c1C was LiHisRS: 1.709%; TcHisRS: 8.108%; ClpP1P2: 2.261%.
Result for Cc1nnc2ccc(NCC3(N4CCCCC4)CCOCC3)nn12 was LiHisRS: 11.76%; TcHisRS: 6.878%; ClpP1P2: 4.615%.
Result for CS(=O)(=O)N1C[C@@H]2CCN(C(=O)c3cscn3)[C@@H]2C1 was LiHisRS: 9.434%; TcHisRS: 5.556%; ClpP1P2: -1.231%.
Result for Cc1nn(C)c(C)c1C1COCCN1C(=O)c1cc(F)ccc1F (stereo not shown) was LiHisRS: 15.38%; TcHisRS: 4.571%; ClpP1P2: -15.59%.
Result for OC(CN1CCN(Cc2cc(F)ccc2F)CC1)C1CC1 (stereo not shown) was LiHisRS: 9.917%; TcHisRS: 1.02%; ClpP1P2: -2.158%.
Result for COCCNc1c(-c2ccc(C)cc2)c(=O)c1=O was LiHisRS: 15.07%; TcHisRS: 7%; ClpP1P2: 5.416%.
Result for O=C(c1cnccn1)N1C[C@@H](OCc2ccncc2)[C@@H]2OCCC[C@@H]21 was LiHisRS: -2.564%; TcHisRS: -1.22%; ClpP1P2: 19.43%.
Result for O=S(=O)(CCNC1CCc2ncnn2C1)c1ccccc1 (stereo not shown) was LiHisRS: 0%; TcHisRS: 7.985%; ClpP1P2: 10.23%.
Result for Cc1cnc(C(=O)N2CCCn3c(nc(CN(C)C)cc3=O)C2)cn1 was LiHisRS: 20%; TcHisRS: 5.882%; ClpP1P2: 4.034%.
Result for Cc1ccccc1NC(=O)N1CC[C@@H]2CN(CC(C)C)S(=O)(=O)[C@@H]2CC1 was LiHisRS: 11.65%; TcHisRS: 3.883%; ClpP1P2: -2.451%.
Result for CCS(=O)(=O)N1CC[C@@H]2[C@@H](CCC(=O)N2CCc2ccccc2)C1 was LiHisRS: 9.375%; TcHisRS: 4.469%; ClpP1P2: -5.299%.
Result for Cc1cc(C)c2[nH]c(C(=O)NCCN3CCCC3=O)c(C)c2c1 was LiHisRS: 14.16%; TcHisRS: 0%; ClpP1P2: -12%.

Repeated from the top, 2 entries:

SMILES	LiHisRS	TcHisRS	ClpP1P2
O=C(NCCNc1ccccn1)Nc1cc(C(F)(F)F)c[nH]c1=O	16.51	5.539	-15.68
CCc1ccc(CCn2cnc(C#N)n2)cc1	2.073	1.657	0.7263